Measured data: PubChem BioAssay AID1259308 (NCATS, 2017)

Aim: 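Genes whose loss raises luciferase production in HEK293 cells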 (primary screen)
Cells: human HEK293 embryonic kidney cells stably expressing firefly luciferase (HEK-CMV-Luc2-Hygro)
Reagent: single siRNA against human genes, 0.8 pmol siRNA per well
Time to read-out: 72 h
Measurement: 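Luciferase light (ONE-Glo) measured on one replicate plate set and viability (CellTiter-Glo) on the other, scaled to a negative control siRNA, with robust z-scores and luciferase per cell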
Reading the numbers: total luciferase, z-score and total luciferase, % of control: higher = more reporter protein produced
Call rule: 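An siRNA counts as active if its total luciferase robust z-score exceeds 3; genes with two or more such siRNAs out of three were retested with fresh siRNAs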
Calls: active = raised luciferase; inactive = no rise
The deposit covers about 59,000 reagents; below is a random part of them. About 1,510 of them (2.6%) were called active. 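Calls use total luciferase alone and ignore viability, so some active siRNAs may act by altering cell number.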 Entries without a mark were called inactive. The numbers tell different reagents against one gene apart. Not all columns of the deposit are shown.

What is on record for GMEB2 (glucocorticoid modulatory element binding protein 2) #1?
total luciferase, z-score: -2.72; total luciferase, % of control: 27.7

How did the screen score GMEB2 (glucocorticoid modulatory element binding protein 2) #2?
total luciferase, z-score: -0.253; total luciferase, % of control: 76.9

What did the screen give for GMEB2 (glucocorticoid modulatory element binding protein 2) #3?
total luciferase, z-score: -1.11; total luciferase, % of control: 59.8

For CCN4 (cellular communication network factor 4) #1, how do the results read?
total luciferase, z-score: 0.295; total luciferase, % of control: 87.8

With CCN4 (cellular communication network factor 4) #2, how do the results read?
total luciferase, z-score: 0.297; total luciferase, % of control: 87.8

What is on record for CCN4 (cellular communication network factor 4) #3?
total luciferase, z-score: -0.734; total luciferase, % of control: 67.3

What did the screen give for OR1C1 (olfactory receptor family 1 subfamily C member 1) #1?
total luciferase, z-score: 1.11; total luciferase, % of control: 104

Which result is listed for OR1C1 (olfactory receptor family 1 subfamily C member 1) #2?
total luciferase, z-score: -0.0315; total luciferase, % of control: 81.3

Which result is listed for OR1C1 (olfactory receptor family 1 subfamily C member 1) #3?
total luciferase, z-score: -0.608; total luciferase, % of control: 69.8

Which result is listed for SEC61G (SEC61 translocon subunit gamma) #1?
total luciferase, z-score: -0.845; total luciferase, % of control: 65.1

With SEC61G (SEC61 translocon subunit gamma) #2, what was measured?
total luciferase, z-score: -0.993; total luciferase, % of control: 62.1

With SEC61G (SEC61 translocon subunit gamma) #3, what was measured?
total luciferase, z-score: 0.428; total luciferase, % of control: 90.4

Entries listed so far whose target name begins with C or c (3):
CCN4 (cellular communication network factor 4) #1: total luciferase, z-score = 0.295; total luciferase, % of control = 87.8
CCN4 (cellular communication network factor 4) #2: total luciferase, z-score = 0.297; total luciferase, % of control = 87.8
CCN4 (cellular communication network factor 4) #3: total luciferase, z-score = -0.734; total luciferase, % of control = 67.3

Next entries:
What did the screen give for ZNF281 (zinc finger protein 281) #1?
total luciferase, z-score: 0.0212; total luciferase, % of control: 82.3

How did the screen score ZNF281 (zinc finger protein 281) #2?
total luciferase, z-score: 0.417; total luciferase, % of control: 90.2

For ZNF281 (zinc finger protein 281) #3, what does the deposit list?
total luciferase, z-score: 0.434; total luciferase, % of control: 90.5

What is on record for CNKSR1 (connector enhancer of kinase suppressor of Ras 1) #1?
total luciferase, z-score: -1.47; total luciferase, % of control: 52.7

With CNKSR1 (connector enhancer of kinase suppressor of Ras 1) #2, what does the deposit list?
total luciferase, z-score: -1.05; total luciferase, % of control: 61.1

With CNKSR1 (connector enhancer of kinase suppressor of Ras 1) #3, what does the deposit list?
total luciferase, z-score: 0.903; total luciferase, % of control: 99.8

How did the screen score YIPF7 (Yip1 domain family member 7) #1?
total luciferase, z-score: 2.22; total luciferase, % of control: 126

How did the screen score YIPF7 (Yip1 domain family member 7) #2?
total luciferase, z-score: -1.32; total luciferase, % of control: 55.7

Which result is listed for YIPF7 (Yip1 domain family member 7) #3?
total luciferase, z-score: -1.39; total luciferase, % of control: 54.2

What is on record for SWSAP1 (SWIM-type zinc finger 7 associated protein 1) #1?
total luciferase, z-score: 0.357; total luciferase, % of control: 89

For SWSAP1 (SWIM-type zinc finger 7 associated protein 1) #2, what does the deposit list?
total luciferase, z-score: 3.42 (active); total luciferase, % of control: 150

Which result is listed for SWSAP1 (SWIM-type zinc finger 7 associated protein 1) #3?
total luciferase, z-score: -0.171; total luciferase, % of control: 78.5

Which result is listed for ATP6V0C (ATPase H+ transporting V0 subunit c) #1?
total luciferase, z-score: -0.761; total luciferase, % of control: 66.7

What is on record for ATP6V0C (ATPase H+ transporting V0 subunit c) #2?
total luciferase, z-score: -1.11; total luciferase, % of control: 59.9

What is on record for ATP6V0C (ATPase H+ transporting V0 subunit c) #3?
total luciferase, z-score: -0.376; total luciferase, % of control: 74.4

What did the screen give for DLEU1 (deleted in lymphocytic leukemia 1) #1?
total luciferase, z-score: -0.464; total luciferase, % of control: 72.6

What did the screen give for DLEU1 (deleted in lymphocytic leukemia 1) #2?
total luciferase, z-score: -0.0155; total luciferase, % of control: 81.6

How did the screen score DLEU1 (deleted in lymphocytic leukemia 1) #3?
total luciferase, z-score: -0.156; total luciferase, % of control: 78.8

For ANKRD23 (ankyrin repeat domain 23) #1, how do the results read?
total luciferase, z-score: -0.613; total luciferase, % of control: 69.7

For ANKRD23 (ankyrin repeat domain 23) #2, what does the deposit list?
total luciferase, z-score: 0.675; total luciferase, % of control: 95.3

What is on record for ANKRD23 (ankyrin repeat domain 23) #3?
total luciferase, z-score: -0.859; total luciferase, % of control: 64.8
